{"source": "patent US20250027127A1", "about": "“C[…] BACTERIA” (priority 2021, published 2025)", "molecules": {"B1": {"name": "Tcz9: berberine bridge enzyme-like (BBE-like) oxidase from Actinomycete sp. AJS-327, SEQ ID NO: 1 (protein)", "chain": "MATPSAFSGSVLTPGDDGFEAAQVTWNACYSSRPREVMVCHDAASVAEAVRSVRERGLPFRVRSGGHSMCGLSNLDDGVIIDLGGLGGVELTPDRQTVRIGGGARLADVYNTLWDHRLTVPAGTCPRIGVGGHVLGGGMGVLSRSRGALVDHLTALEMVDAEGRLLRVSEDENPDLFWACRGGGGGNFGIVTAYELRPTPIDDVTIFTVSWTWSQLPDAVRAWQRWLGSAESRINSFLSLFPQQQDMVVAFGVFDGPAADFRPLLAPLTAEVAPEAEVVEEVPFIQAVDTVEALQGEAAAAEQVRAQGSSAIIANPLNDEALATLQEFLTDPPSHRAEVAVYGMGGVIGERERGDTAFVHRTGLMAFEYRTDWDSPEDDRLNLDWVTRLRHAMAEHTTGAAYVNTIDLALENWLWAYYEENLPRLMAVKRRYDPENVFHHPHSIPGSLTAEAARAHGVPEATLKRLHDDGLLDGPLD"}}, "assay": "Temperature and solvent effects on Tcz9 activity", "assay_type": "biochemical", "data": [{"molecule": "B1", "values": [{"measurement": "DMSO withstood before activity is significantly affected", "setting": "55° C., 8 hours, compound 9", "value": "> 20", "unit": "% DMSO"}, {"measurement": "temperature at which production of compound 11 significantly increased", "setting": "compared to 25° C., crude cell lysate, compound 9, pH 7.5, 8 hours", "value": "55-70 °C"}]}]}
